Source: PubChem BioAssay AID1487 (National Center for Advancing Translational Sciences (NCATS), 2009)
Some of the results follow. Further columns of the screen follow, without active or inactive calls. Most of these compounds were active or inconclusive in the main read-out, so they are no random draw. Potencies come from curve fits of mixed quality, noted in brackets.

Test: qHTS Assay for Modulators of Lamin A Splicing
Settings: HeLa LMNA splicing GFP/RFP minigene ratio, 48 h
Summary of the method: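 S3 HeLa cells stably expressing lamin A-EGFP splicing minigene plus DsRed2, 600 cells/well, 48 h compound exposure at 37C. Laser-scanning cytometry; analysed as GFP (500-530 nm)/RFP (575-640 nm) total intensity ratio; 0.5% DMSO vehicle.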

[1] = measured here: GFP splicing reporter channel
[2] = measured here: RFP viability control channel

SMILES	AC50 [1]	AC50 [2]
CC(=O)Nc1ccc(S(=O)(=O)NCC(=O)OCc2cc(=O)oc3ccc4ccccc4c23)cc1	12.6 µM [rising, partial curve, poor fit]	14.1 µM [rising, single point]
CC(=O)c1ccc(C(=O)N(CCN(C)C)c2nc3c(Cl)cccc3s2)cc1	0.316 µM [rising, partial curve]	0.158 µM [rising, full curve]
COCCNC(=S)N/N=C/c1ccc(N2CCOCC2)cc1	–	35.5 µM [rising, single point]
COc1ccc(CNc2nc3c(c(=O)[nH]c(=O)n3C)n2CCCc2ccccc2)cc1	–	35.5 µM [rising, single point]
Cc1cc(C)nc(N2CCCC(C(=O)Nc3nc4ccc(S(C)(=O)=O)cc4s3)C2)n1 (stereo unspecified)	–	31.6 µM [rising, single point]
S=C(NCCSCc1c(Cl)cccc1Cl)Nc1ccccc1	35.5 µM [falling, single point]	35.5 µM [falling, single point]
CCOC(=O)c1ccc(NC(=S)N(CCCN2CCCC(C)C2)Cc2cccs2)cc1 (stereo unspecified)	14.1 µM [falling, partial curve, poor fit]	–
COc1ccccc1NC(=S)NCc1cccnc1	25.1 µM [rising, single point]	0.251 µM [rising, partial curve]
COc1cccc(CC(=O)Nc2ccc3nc(Nc4cccc(C(F)(F)F)c4)cc(C)c3c2)c1	0.0282 µM [falling, full curve, poor fit]	0.02 µM [falling, full curve]
COc1ccc(CC(=O)c2ccc(OC)c(OC)c2C)cc1OC	6.31 µM [rising, partial curve]	7.08 µM [rising, partial curve]
N#CC1=C(N)Oc2cc(N)ccc2C1c1ccc(F)cc1 (stereo unspecified)	–	35.5 µM [rising, single point]
CCOc1ccc(CCNC(=O)c2nn(C)c3c2CSc2ccc(C)cc2-3)cc1OCC	–	4.47 µM [rising, partial curve, poor fit]
N=c1c2c(-c3ccccc3)c(-c3ccccc3)n(Cc3ccccc3)c2ncn1CCO	20 µM [falling, partial curve]	12.6 µM [falling, partial curve]
O=S(=O)(c1ccc(NC2CCCCC2)cc1)N1CCOCC1	–	20 µM [rising, single point]
Cc1ccc(-c2noc(-c3cccs3)n2)cc1	–	31.6 µM [rising, single point]
COc1cc(NC(=S)N2CCC(C(O)(c3ccccc3)c3ccccc3)CC2)cc(OC)c1	31.6 µM [rising, single point]	25.1 µM [rising, single point]
O=C(NCCSCc1ccccc1)c1ccc(C2SCC(=O)N2Cc2ccccc2)cc1 (stereo unspecified)	–	35.5 µM [rising, single point]

Ten structures already listed, sorted by SMILES length, smallest number first.
SMILES	AC50 [1]	AC50 [2]
COc1ccccc1NC(=S)NCc1cccnc1	25.1 µM [rising, single point]	0.251 µM [rising, partial curve]
S=C(NCCSCc1c(Cl)cccc1Cl)Nc1ccccc1	35.5 µM [falling, single point]	35.5 µM [falling, single point]
O=S(=O)(c1ccc(NC2CCCCC2)cc1)N1CCOCC1	–	20 µM [rising, single point]
COc1ccc(CC(=O)c2ccc(OC)c(OC)c2C)cc1OC	6.31 µM [rising, partial curve]	7.08 µM [rising, partial curve]
O=C(NCCSCc1ccccc1)c1ccc(C2SCC(=O)N2Cc2ccccc2)cc1 (stereo unspecified)	–	35.5 µM [rising, single point]
CCOC(=O)c1ccc(NC(=S)N(CCCN2CCCC(C)C2)Cc2cccs2)cc1 (stereo unspecified)	14.1 µM [falling, partial curve, poor fit]	–
CCOc1ccc(CCNC(=O)c2nn(C)c3c2CSc2ccc(C)cc2-3)cc1OCC	–	4.47 µM [rising, partial curve, poor fit]
COc1cc(NC(=S)N2CCC(C(O)(c3ccccc3)c3ccccc3)CC2)cc(OC)c1	31.6 µM [rising, single point]	25.1 µM [rising, single point]
Cc1cc(C)nc(N2CCCC(C(=O)Nc3nc4ccc(S(C)(=O)=O)cc4s3)C2)n1 (stereo unspecified)	–	31.6 µM [rising, single point]
COc1cccc(CC(=O)Nc2ccc3nc(Nc4cccc(C(F)(F)F)c4)cc(C)c3c2)c1	0.0282 µM [falling, full curve, poor fit]	0.02 µM [falling, full curve]

Further structures

SMILES	AC50 [1]	AC50 [2]
COc1ccc(CCN(C)CCCC(C#N)(c2cc(OC)c(OC)c(OC)c2)C(C)C)cc1OC (stereo unspecified)	35.5 µM [falling, single point]	0.562 µM [falling, partial curve, poor fit]
Clc1ccccc1-c1nc(-n2ccnc2)c2ccccc2n1	3.98 µM [falling, full curve]	10 µM [falling, partial curve]
CCC(C)NC(=O)Cn1c(=O)c2cccn2c2ccc(F)cc21 (stereo unspecified)	14.1 µM [rising, partial curve, poor fit]	20 µM [rising, single point]
Cn1c(SCC(=O)N/N=C/C=C\c2ccco2)nc2ccccc21	35.5 µM [falling, single point]	35.5 µM [falling, single point]
CN(C)c1ccc(NC(=O)Cn2cc(S(=O)(=O)Cc3ccccc3Cl)c3ccccc32)cc1	0.00282 µM [falling, full curve]	–
O=C(NCc1ccco1)c1ccc(COc2cccc3ccccc23)cc1	–	22.4 µM [rising, partial curve, poor fit]
Clc1cccc(-n2ncc3c(NC4CCCCCC4)ncnc32)c1	20 µM [falling, partial curve, poor fit]	31.6 µM [falling, partial curve]
Cc1ccc(NC(=O)CSc2nc(N)c3cc4c(nc3n2)CCCC4)cc1	–	22.4 µM [rising, single point]
Fc1ccccc1Nc1nc(-c2ccncc2)nc2ccccc12	–	11.2 µM [rising, partial curve]
O=C1C2CCCCN2C(=O)N1CCN1CCN(c2ccc([N+](=O)[O-])cc2)CC1 (stereo unspecified)	–	22.4 µM [rising, partial curve, poor fit]
Nc1cccc(-c2ccc(CO)o2)c1	1.26 µM [rising, full curve, poor fit]	–
OC(COCC1COc2ccccc2O1)CN1CCN(c2ccccc2F)CC1 (stereo unspecified)	5.62 µM [falling, single point]	5.62 µM [falling, single point]
CCn1c(CNC(=O)c2ccccc2F)nnc1SCc1nc2ccccc2c(=O)[nH]1	3.16 µM [falling, partial curve, poor fit]	–
CCCN1CCC(=NNc2ccc(S(=O)(=O)N3CCOCC3)cc2[N+](=O)[O-])CC1	–	7.94 µM [rising, partial curve, poor fit]
Cc1ccc(NC(=O)c2cc(-c3ccccc3)nn2-c2ccccc2)c(Br)c1	1.12 µM [rising, partial curve, poor fit]	35.5 µM [rising, single point]
O=C(Cc1ccc(S(=O)(=O)N2CCOCC2)s1)Nc1nc2c(s1)CCCC2	22.4 µM [falling, single point]	22.4 µM [falling, partial curve]
COC(=O)CCCCCN1C(=O)NC(c2ccccc2)C(C(=O)OCc2ccccc2)=C1C (stereo unspecified)	15.8 µM [rising, partial curve]	12.6 µM [rising, partial curve, poor fit]
